Experimental data as given in PubChem BioAssay AID1347075 (National Center for Advancing Translational Sciences (NCATS), 2019).
The whole screen tested about 400,000 compounds, of which about 5,500 (1.4%) were called active. This list was built around the results that the source calls inconclusive (neither active nor inactive); the mix of calls is not that of the screen. Calls come from the whole dose curve; as a rule, active = well fitted cell-killing curve with a large enough effect; inconclusive = small, poorly fitted or top-dose-only effect, or effect the other way; inactive = flat fitted curve, though single readings scatter. A potency beside an inconclusive call is a rough fit, not a confirmed value.
Potency is the fitted concentration of half-maximal effect.

Experiment: qHTS assay for MDR1-selective chemotherapeutics: Primary screen using the parental adenocarcinoma cell KB-3-1; note: nearly all actives have a fitted effect of over 60% in size
Settings: KB-3-1 viability, CellTiter-Glo ATP luminescence, 72 h; series mostly up to 46.1 µM
In short: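 KB-3-1 cells, DMEM (no phenol red) + 10% FBS; compound by pin transfer, 72 h, 37 °C. Readout: CellTiter-Glo luminescence after 10 min. Data normalized, curve-fitted.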
In the case of `O=C1OC(c2ccccc2)=C/C1=C\N1CCOCC1`, the Potency was “inactive”. For `CCOC(=O)c1ccc(NC(=O)c2nc[nH]c2C(=O)N[C@@H](CC(C)C)C(=O)OC(C)(C)C)cc1`, the Potency was inconclusive: 8.2 µM [cytotoxic, partial curve]. In the case of `O=C(Nc1ccc(F)c(Cl)c1)C1CCN(S(=O)(=O)c2cccnc2)CC1`, the Potency was inconclusive: 32.6 µM [cytotoxic, single point]. With `CNC(=O)C1CCC(Cn2c(=O)c3sccc3n(Cc3ccccc3)c2=O)CC1` (stereo unspecified) the Potency was “inactive”. For `Cc1csc(NC(=O)c2nc(-c3ccccc3)n(-c3ccccc3)n2)n1`, the Potency was inconclusive: 18.4 µM [rising, single point]. In the case of `COc1ccc(-c2c(C)nn3c(N4CCN(Cc5ccccc5)CC4)cc(C)nc23)cc1OC`, the Potency was “inactive”. With `CCOC(=O)C1=NN(c2ccc(C)cc2)C2(S1)SC(C(C)=O)=C(C)N2c1ccccc1` (stereo unspecified) the Potency was inconclusive: 29.1 µM [cytotoxic, single point]. In the case of `CCOC(=O)c1[nH]c(C)c(CCC(=O)Nc2cc(Cl)ccc2C)c1C`, the Potency was “inactive”. For `CCCCCC(=O)Nc1ccc(C(=O)CN2C(=O)NC3(CCCCCC3)C2=O)cc1`, the Potency was inconclusive: 14.6 µM [cytotoxic, single point]. For `Cc1cc(Cl)ccc1NC(=S)NCCc1ccc(Cl)cc1`, the Potency was inconclusive: 23.1 µM [cytotoxic, single point]. In the case of `COc1cccc(/C=N/n2cnc3cc(C)c(C)cc32)c1OC`, the Potency was inconclusive: 13 µM [rising, single point]. With `Cc1cc(/C=C(\C#N)C(=O)NCc2cccs2)c(C)n1-c1ccccc1F` the Potency was inconclusive: 29.1 µM [cytotoxic, single point]. In the case of `Cc1ccc(NC(=O)C2(C)CCN2C(=O)c2ccccc2CCc2ccccc2)cc1C` (stereo unspecified), the Potency was inconclusive: 29.1 µM [cytotoxic, single point]. With `O=C(Nc1nc(-c2ccc(Cl)cc2Cl)cs1)C1CCCO1` (stereo unspecified) the Potency was “inactive”. With `Fc1ccccc1Nc1nc2ccccc2o1` the Potency was inconclusive: 25.9 µM [cytotoxic, single point]. With `CC(=O)Nc1cccc(Oc2cc(C#N)c(C#N)cc2N2CCCCCC2)c1` the Potency was inconclusive: 32.6 µM [cytotoxic, single point]. For `CCOc1cc2[nH]c(=S)n(Cc3ccc(C(=O)N4CCN(C)CC4)cc3)c(=O)c2cc1OCC`, the Potency was inconclusive: 29.1 µM [cytotoxic, single point]. In the case of `Cc1ccccc1NC(=O)CSc1ncc2c(n1)-c1ccccc1N(C)S2(=O)=O`, the Potency was inconclusive: 6.51 µM [rising, partial curve]. For `CCC(C)Sc1cc(C)c(C#N)c2nc3ccccc3n12` (stereo unspecified), the Potency was “inactive”. With `O=C(COC(=O)c1cc([N+](=O)[O-])ccc1N1CCOCC1)c1ccc(Br)cc1` the Potency was inconclusive: 18.4 µM [rising, single point]. With `CCC1=Nc2cc(C(=O)NCCc3ccccc3)ccc2Sc2ccc(Cl)cc21` the Potency was active: 10.3 µM. With `CC1(Cc2cc(Cl)ccc2C(F)(F)F)C(=O)Nc2ccc(S(=O)(=O)NC3CCCCC3)cc21` (stereo unspecified) the Potency was inconclusive: 29.1 µM [cytotoxic, single point]. For `CCOc1ccc(CC(=O)Nc2c(C(=O)c3ccc(Cl)cc3)oc3ccccc23)cc1OCC`, the Potency was “inactive”. In the case of `CC1(C)Cc2nc3sc4c(SCC(=O)NC(c5ccccc5)c5ccccc5)ncnc4c3cc2CO1`, the Potency was inconclusive: 20.6 µM [cytotoxic, partial curve, poor fit]. With `O=c1c(-c2ccccc2Cl)coc2c(CN3CCCCC3)c(O)ccc12` the Potency was “inactive”. With `COc1ccccc1NC(=O)C(=O)NCCC1CCCCN1S(=O)(=O)c1ccccc1` (stereo unspecified) the Potency was inconclusive: 29.1 µM [cytotoxic, single point]. With `CC1CCN(CCCNC(=O)c2ccc3c(=O)n(Cc4ccc(Cl)cc4)c(=S)[nH]c3c2)CC1` the Potency was inconclusive: 29.1 µM [cytotoxic, single point]. With `O=C(CCc1ccccc1)Nc1ccc(F)c([N+](=O)[O-])c1` the Potency was “inactive”. In the case of `CC(C)(C)OC(=O)NNc1c2ccccc2nc2ccccc12`, the Potency was inconclusive: 32.6 µM [cytotoxic, single point]. In the case of `Cc1ccc(OCc2cc(=O)n3c4c(sc3n2)CCCC4)c(C)c1`, the Potency was “inactive”. With `O=C(NC1CCCC1)C(c1ccccc1)n1c(-c2cccc3ccccc23)nc2ccccc21` (stereo unspecified) the Potency was “inactive”. In the case of `Cc1c(C(=O)NCc2ccc3c(c2)OCCO3)sc(=O)n1Cc1ccc(C(=O)N(C)C)cc1`, the Potency was inconclusive: 20.6 µM [cytotoxic, single point]. With `COc1cc(Cn2c3ccc(NC(=O)NCc4ccc(F)cc4)cc3c(=O)n2C)ccc1F` the Potency was active: 9.2 µM. For `COc1ccc(C(=O)Nc2ccc(Cn3ccnc3)cc2)cc1OC`, the Potency was inconclusive: 29.1 µM [cytotoxic, single point]. With `O=C(Nc1ccc(C(=O)N2CCN(c3ccncc3)CC2)cc1)c1ccc(Br)o1` the Potency was inconclusive: 18.4 µM [rising, partial curve, poor fit]. With `COc1ccc(OCCOC(=O)c2[nH]c(C)c(C(C)=O)c2C)cc1` the Potency was inconclusive: 20.6 µM [cytotoxic, partial curve, poor fit]. With `COc1ccc(S(=O)(=O)N2CCCOC2CNC(=O)C(=O)NCCc2ccco2)cc1C` (stereo unspecified) the Potency was active: 6.51 µM. For `CC(C)(C)c1ccc(OCc2ccc(C(=O)N/N=C3\CC4CC=CC34)cc2)cc1` (stereo unspecified), the Potency was inconclusive: 29.1 µM [cytotoxic, single point]. With `CC1=NN(C(=O)Cc2ccccc2)C(O)(c2ccccc2)C1` (stereo unspecified) the Potency was inconclusive: 0.0082 µM [rising, full curve, poor fit]. For `C(#Cc1ccccc1)C[N+]1(CC#Cc2cccc3ccccc23)CCCC1`, the Potency was active: 16.4 µM. With `Cc1nc(-c2ccc(NC(=O)c3ccco3)cc2)cs1` the Potency was inconclusive: 29.1 µM [cytotoxic, single point]. For `C/C(=N\NC(=O)c1ccc(NS(=O)(=O)c2cccs2)cc1)c1ccc(O)cc1O`, the Potency was inconclusive: 32.6 µM [cytotoxic, partial curve, poor fit]. In the case of `O=C(OCc1ccccc1)c1cc(S(=O)(=O)N2CCCCC2)ccc1N1CCOCC1`, the Potency was inconclusive: 10.3 µM [cytotoxic, partial curve, poor fit]. With `Cc1onc(-c2ccccc2)c1C(=O)c1c[nH]c(C(=O)NCc2ccccn2)c1` the Potency was inconclusive: 29.1 µM [cytotoxic, single point]. In the case of `Cc1ccc(Cn2c(C(C)Nc3nc(-c4ccc(Cl)cc4)cs3)nc3cc(C(=O)NCCCO)ccc32)cc1` (stereo unspecified), the Potency was inconclusive: 29.1 µM [cytotoxic, single point]. In the case of `O=c1c2ccccc2nc(COc2ccccc2)n1/N=C/c1ccc(O)cc1O`, the Potency was inconclusive: 29.1 µM [cytotoxic, single point]. For `Cc1cc(NC(=O)c2cc(-c3ccncc3)nc3c(C)cccc23)no1`, the Potency was active: 3.26 µM. In the case of `O=C1C2C3C=CC(CNS(=O)(=O)c4ccccc4[N+](=O)[O-])(O3)C2C(=O)N1c1ccccc1` (stereo unspecified), the Potency was “inactive”. In the case of `O=C(Nc1ccc(F)cc1)c1ccc(-n2cnc3cccnc32)cc1`, the Potency was inconclusive: 4.11 µM [rising, partial curve, poor fit]. In the case of `O=S(=O)(NCC(c1ccco1)N1CCN(c2ccc(F)cc2)CC1)c1ccc2c(c1)OCCO2` (stereo unspecified), the Potency was inconclusive: 20.6 µM [cytotoxic, partial curve]. For `COc1ccc(CCN(Cc2ccccn2)C(=S)Nc2ccc(C)cc2)cc1OC`, the Potency was inconclusive: 29.1 µM [cytotoxic, single point]. In the case of `Cc1cccc(C)c1Nc1nnc(SCc2nc3ccccc3c(=O)[nH]2)s1`, the Potency was “inactive”. For `Cc1ccc2c(c1)c1c(n2C)-c2[nH]ncc2CC1`, the Potency was inconclusive: 29.1 µM [cytotoxic, single point]. For `Oc1ccc(Br)cc1/C=N/Nc1ncc(-c2ccccc2)cn1`, the Potency was inconclusive: 18.4 µM [cytotoxic, single point]. With `CCN(CC)CCNc1ncnc2c1sc1nc(N3CCOCC3)c3c(c12)CCCC3` the Potency was active: 14.6 µM. For `C/C(=N\NC(=O)c1cc(-c2ccco2)nc2ccccc12)c1cccnc1`, the Potency was “inactive”. For `Cc1cc(C)cc(NC(=S)NCCCN2CCOCC2)c1`, the Potency was inconclusive: 29.1 µM [rising, single point]. In the case of `Cc1ccccc1NS(=O)(=O)c1cc(C(=O)Nc2cccc([N+](=O)[O-])c2)ccc1C`, the Potency was inconclusive: 29.1 µM [cytotoxic, single point]. With `CCOC(=O)[C@]12CCC=C1N(Cc1ccc(Cl)cc1Cl)C(=O)[C@H](CC(=O)NCc1cccc(C(F)(F)F)c1)C2` the Potency was inconclusive: 13 µM [cytotoxic, single point]. With `C=Cc1ccc2c(c1)N(C)C(=C)S2` the Potency was inconclusive: 29.1 µM [rising, partial curve, poor fit]. In the case of `Cc1ccsc1/C=C/c1ccc2ccccc2n1`, the Potency was inconclusive: 16.4 µM [cytotoxic, single point]. In the case of `CC(C)(C)c1ccc(C(=O)NC(=S)Nc2nc3c(s2)CCCC3)cc1`, the Potency was inconclusive: 23.1 µM [cytotoxic, partial curve, poor fit]. With `CCN(CC)c1ccc2c(c1)OC(N)=C(C#N)C2c1cccnc1` (stereo unspecified) the Potency was active: 0.0411 µM. For `Cc1ncc(CO)c(/C=N/NC(=S)Nc2ccc(F)cc2)c1O`, the Potency was inconclusive: 29.1 µM [cytotoxic, single point]. With `N#Cc1ccc(C(=O)Nc2nc(-c3cccs3)c(C(=O)C(F)(F)F)s2)cc1` the Potency was active: 5.8 µM. For `O=[N+]([O-])c1ccc(CS(=O)(=O)c2ccc(Cl)cc2)cc1`, the Potency was inconclusive: 29.1 µM [cytotoxic, single point].
